The list shows only some results of the screen, not a fair sample: it gathers tests that were run many times, whatever their T/C, doses with no T/C, and many T/C values between a quarter and a half above the control. Other doses and runs of a compound stand elsewhere. T/C: endpoint of the treated group in % of that of the vehicle group. Schedules are NCI's codes, read here as Q, the interval in days (D) or hours (H), X, the number of doses. Some T/C values carry the count of animals alive at the toxicity check (mostly the fifth day); without a count, all were alive then. Some doses have a count of surviving animals in place of a T/C: the source holds a T/C of zero for them, seemingly a mark for toxic or unscored doses. Survivors were counted at the toxicity check, usually on the fifth day, unless a day is given; later deaths do not show.
Tested on: nude mice, A549 intrarenal xenograft, tumor weight change
Assay: NCI In Vivo Anticancer Drug Screen. Data for tumor model A549 Human Adenocarcinoma of Lung with characteristics of Type II Alveolar Epithelial cells (intrarenal inoculation) in NU/NU BALB/C (nude) mice
Details: T/C endpoint: mean tumor weight change, higher T/C = larger tumour; for T/C: evaluated on day 12
Procedure: The antitumor activity of compounds was measured in mice bearing transplantable tumors. Survival or tumor size were measured and the results are expressed as the measurement made in the treated group (T) divided by the measurement made in the vehicle treated control group (C). The tumor model used in this assay is A549 Human Adenocarcinoma of Lung with characteristics of Type II Alveolar Epithelial cells (intrarenal inoculation) in NU/NU BALB/C (nude) mice

[1] = dose: 200.0 mg/kg/injection, schedule: Q04DX003 (ip), vehicle: saline with Tween-80
[2] = dose: 50.0 mg/kg/injection, schedule: Q04DX003 (ip), vehicle: saline with Tween-80
[3] = dose: 400.0 mg/kg/injection, schedule: Q04DX003 (ip), vehicle: saline with Tween-80
[4] = dose: 100.0 mg/kg/injection, schedule: Q04DX003 (ip), vehicle: saline with Tween-80
[5] = dose: 400.0 mg/kg/injection, schedule: Q04DX003 (ip), vehicle: Klucel (hydroxypropylcellulose) (HPC)
[6] = dose: 1200.0 mg/kg/injection, schedule: Q04DX003 (ip), vehicle: Klucel (hydroxypropylcellulose) (HPC)
[7] = dose: 100.0 mg/kg/injection, schedule: Q04DX003 (ip), vehicle: water
[8] = dose: 300.0 mg/kg/injection, schedule: Q04DX003 (ip), vehicle: saline with Tween-80
[9] = dose: 600.0 mg/kg/injection, schedule: Q04DX003 (ip), vehicle: DMSO
[10] = dose: 300.0 mg/kg/injection, schedule: Q04DX003 (ip), vehicle: other
[11] = dose: 200.0 mg/kg/injection, schedule: Q04DX003 (ip), vehicle: Klucel (hydroxypropylcellulose) (HPC)

[NH-]C(CCC(N)=O)C(=O)O.[NH-]C(CCC(N)=O)C(=O)O.[Zn+2] (stereo not drawn) was tested, and the survivor count [1] was 0 of 6 on day 12.
CCC(NC(N)=O)C(CC)NC(N)=O (stereo not drawn) was tested, and the survivor count [2] was 3 of 6 on day 12.
For ClC1(Cl)Cc2ccccc21, the survivor count [3] was 3 of 6 on day 12 and the survivor count (dose: 800.0 mg/kg/injection, schedule: Q04DX003 (ip), vehicle: saline with Tween-80) was 0 of 6 on day 12.
For C/C(=N\NC(=S)N1CC2CCC(CC2)C1)c1nccs1, the survivor count [4] was 0 of 6 on day 12.
In the case of CN(C)c1ccc2c(Nc3ccc(NS(C)(=O)=O)cc3)c3ccc(N(C)C)cc3nc2c1, the survivor count [5] is reported as 3 of 6 on day 12.
In the case of C=C(c1ccc(OC)c(OC)c1)c1nccc2cc(OC)c(OC)cc12, the survivor count (dose: 600.0 mg/kg/injection, schedule: Q04DX003 (ip), vehicle: Klucel (hydroxypropylcellulose) (HPC)) is reported as 2 of 6 on day 12 and the survivor count [6] is reported as 0 of 6 on day 12.
For Nc1ccn([C@@H]2C=C(CO)[C@@H](O)[C@H]2O)c(=O)n1, the survivor count (dose: 2.25 mg/kg/injection, schedule: Q01DX009 (ip), vehicle: saline) was 2 of 6 on day 12, the survivor count (dose: 4.0 mg/kg/injection, schedule: Q01DX009 (ip), vehicle: saline) was 0 of 6 on day 12 and the survivor count (dose: 8.0 mg/kg/injection, schedule: Q01DX009 (ip), vehicle: saline) was 0 of 6 on day 12.
With NC(Cc1ccc(N(CCCl)Cc2ccccc2)cc1)C(=O)O (stereo not drawn) the survivor count [3] was 1 of 6 on day 12.
In the case of CC(=O)/C(=C\c1ccc(Cl)c(Cl)c1)C(=O)CCN(C)C, the survivor count (dose: 100.0 mg/kg/injection, schedule: Q04DX003 (ip), vehicle: saline) is reported as 0 of 6 on day 12.
With O=[N+]([O-])c1ccc([I+]c2ccccc2)cc1 the survivor count (dose: 150.0 mg/kg/injection, schedule: Q04DX003 (ip), vehicle: Klucel (hydroxypropylcellulose) (HPC)) was 0 of 6 on day 12.
O=NNc1cccnc1 was tested, and the survivor count [7] was 3 of 5 on day 12.
With COc1cc2c[n+](C)c3c(c2cc1OC)Cc1cc2c(cc1-3)OCO2 the survivor count [8] was 0 of 6 on day 12.
CC(CNC(=O)C12CC3CC(CC(C3)C1)C2)NC(=O)C12CC3CC(CC(C3)C1)C2 (stereo not drawn) was tested, and the T/C (dose: 150.0 mg/kg/injection, schedule: Q04DX003 (ip), vehicle: DMSO) was 144 % of control, the T/C [9] was 135 % of control and the T/C (dose: 1200.0 mg/kg/injection, schedule: Q04DX003 (ip), vehicle: DMSO) was 126 % of control.
With Oc1c(Cl)cc(Cl)cc1C=NCCSc1ccc(Cl)cc1 the survivor count [6] was 2 of 6 on day 12.
[Cl][Pt][Cl].[NH-]C(CO)C(=O)O (stereo not drawn) was tested, and the T/C (dose: 18.75 mg/kg/injection, schedule: Q04DX003 (ip), vehicle: water) was 131 % of control.
CC(O)C1(O)C(O)CC(OC2c3cc4c(c(O)c3[C@@H]3C[C@@]2(C)OC32C=c3cc[nH]c3=N2)C(=O)c2cccc(O)c2C4=O)OC1C (stereo partly drawn) was tested, and the T/C (dose: 12.5 mg/kg/injection, schedule: Q04DX003 (ip), vehicle: saline with Tween-80) was 145 % of control and the survivor count [4] was 0 of 6 on day 12.
For CCCCNc1ccc2nnc(C)n2n1, the survivor count [9] was 0 of 6 on day 12.
Cc1cc(Br)c2nsnc2c1[N+](=O)[O-] was tested, and the survivor count (dose: 1200.0 mg/kg/injection, schedule: Q04DX003 (ip), vehicle: saline with Tween-80) was 3 of 6 on day 12.
For CN=C(N)N/N=C(\C)c1ccc2sc3ccc(/C(C)=N/NC(N)=NC)cc3c2c1, the survivor count (dose: 450.0 mg/kg/injection, schedule: Q04DX003 (ip), vehicle: saline with Tween-80) was 2 of 6 on day 12.
COc1cc(C2=NCCc3cc4c(cc32)OCO4)cc(OC)c1OC was tested, and the survivor count (dose: 300.0 mg/kg/injection, schedule: Q04DX003 (ip), vehicle: saline + alcohol) was 0 of 6 on day 12.
For COc1ccc(C(C)c2cc3c(cc2OC)OCO3)cc1 (stereo not drawn), the T/C [2] was 127 % of control and the survivor count [1] was 1 of 6 on day 12.
For O=C1C(=O)c2cccnc2-c2ncccc21, the survivor count (dose: 10.0 mg/kg/injection, schedule: Q04DX003 (ip), vehicle: Klucel (hydroxypropylcellulose) (HPC)) was 3 of 6 on day 12, the survivor count (dose: 20.0 mg/kg/injection, schedule: Q04DX003 (ip), vehicle: Klucel (hydroxypropylcellulose) (HPC)) was 0 of 6 on day 12 and the survivor count (dose: 40.0 mg/kg/injection, schedule: Q04DX003 (ip), vehicle: Klucel (hydroxypropylcellulose) (HPC)) was 0 of 6 on day 12.
c1ccc(OCC2CO2)c(OCC2CO2)c1 (stereo not drawn) was tested, and the survivor count (dose: 600.0 mg/kg/injection, schedule: Q04DX003 (ip), vehicle: saline with Tween-80) was 2 of 6 on day 12.
With O=C(NC(Cc1ccc(I)cc1)C(=O)O)c1ccc(Br)cc1 (stereo not drawn) the survivor count [10] was 0 of 6 on day 12 and the survivor count (dose: 300.0 mg/kg/injection, schedule: Q04DX003 (ip), vehicle: sodium bicarbonate) was 2 of 6 on day 12.
O=C(/C=C/c1cccnc1)/C=C/c1cccnc1 was tested, and the T/C (dose: 25.0 mg/kg/injection, schedule: Q04DX003 (ip), vehicle: Klucel (hydroxypropylcellulose) (HPC)) was 138 % of control, the survivor count (dose: 100.0 mg/kg/injection, schedule: Q04DX003 (ip), vehicle: Klucel (hydroxypropylcellulose) (HPC)) was 3 of 6 on day 12 and the survivor count [11] was 0 of 6 on day 12. The survivor count [5] was 0 of 6 on day 12.
With COc1ccc2oc(-c3ccc(Cl)cc3)c(N3CCN(C)CC3)c2c1 the survivor count (dose: 300.0 mg/kg/injection, schedule: Q04DX003 (ip), vehicle: saline) was 2 of 6 on day 12 and the survivor count (dose: 600.0 mg/kg/injection, schedule: Q04DX003 (ip), vehicle: saline) was 0 of 6 on day 12.
In the case of COc1ccc(C[C@@H]2NC[C@@H](O)[C@@H]2OC(C)=O)cc1, the survivor count [8] is reported as 1 of 4 on day 12.
For O=c1[nH]cnc2c1cnn2CN1CCOCC1, the survivor count [11] was 0 of 6 on day 12 and the survivor count [5] was 0 of 6 on day 12.
With CCCCN1C(=O)N(c2ccc(OCC)cc2)C2N(CCCC)C1C(C)(C)C2(C)C (stereo not drawn) the survivor count (dose: 240.0 mg/kg/injection, schedule: Q04DX003 (ip), vehicle: saline with Tween-80) was 3 of 5 on day 12.
With c1nnc(NCNc2nncs2)s1 the survivor count [5] was 3 of 6 on day 12, the survivor count (dose: 667.0 mg/kg/injection, schedule: Q04DX003 (ip), vehicle: Klucel (hydroxypropylcellulose) (HPC)) was 1 of 6 on day 12 and the survivor count (dose: 800.0 mg/kg/injection, schedule: Q04DX003 (ip), vehicle: suspension in saline) was 2 of 6 on day 12.
With COC1CC2C=C(C)/C=C/C=C/C(=O)NC(c3ccccc3)C/C=C/CCC(O)CC(=O)C2=C1O (stereo not drawn) the survivor count (dose: 300.0 mg/kg/injection, schedule: Q04DX003 (ip), vehicle: Klucel (hydroxypropylcellulose) (HPC)) was 0 of 6 on day 12.
In the case of CCCCCCCCCCCCN1C(C)=CS/C1=C\C=C\c1scc(C)[n+]1CCCCCCCCCCCC, the survivor count (dose: 6.0 mg/kg/injection, schedule: Q04DX003 (ip), vehicle: saline with Tween-80) is reported as 2 of 6 on day 12, the survivor count (dose: 12.0 mg/kg/injection, schedule: Q04DX003 (ip), vehicle: saline with Tween-80) is reported as 0 of 6 on day 12 and the survivor count (dose: 24.0 mg/kg/injection, schedule: Q04DX003 (ip), vehicle: saline with Tween-80) is reported as 0 of 6 on day 12.
With CC1=C[P+](c2ccccc2)(c2ccccc2)C=C(c2ccccc2)O1 the T/C (dose: 4.0 mg/kg/injection, schedule: Q04DX003 (ip), vehicle: suspension in saline) was 128 % of control [5 of 6 alive on day 12].
With CC1(O)C=CC(=O)C=C1 the T/C (dose: 12.5 mg/kg/injection, schedule: Q04DX003 (ip), vehicle: water) was 129 % of control and the survivor count [7] was 1 of 6 on day 12.
CO[C@@H]1C2=CC=CC=C[C@H]2n2c(=O)n(C)c(=O)n21 was tested, and the survivor count [10] was 3 of 6 on day 12, the survivor count (dose: 300.0 mg/kg/injection, schedule: Q04DX003 (ip), vehicle: water) was 2 of 6 on day 12 and the survivor count (dose: 600.0 mg/kg/injection, schedule: Q04DX003 (ip), vehicle: other) was 0 of 6 on day 12.

From PubChem BioAssay AID278 (DTP/NCI, 2004)
